What all share (assay): proximity labelling; TurboID fused to the C-terminus of the bait, CUP1 promoter, strain YDK11-5A, 500 μM copper sulfate and biotin for 1 h at 30 °C; streptavidin purification of biotinylated proteins, LC-MS/MS; enrichment against GFP-TurboID and NLS-GFP-TurboID controls
For experiment [1], the target named is T1, Rps2(1–145).R95R97K99>A-TurboID (S. cerevisiae) (UniProt P25443).
T1 sequence: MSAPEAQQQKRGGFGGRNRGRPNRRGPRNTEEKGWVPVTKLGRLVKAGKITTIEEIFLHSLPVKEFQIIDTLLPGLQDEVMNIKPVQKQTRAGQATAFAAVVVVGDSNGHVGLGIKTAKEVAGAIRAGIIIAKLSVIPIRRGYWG

Experiment [2] concerns the target T2, Rps2(1–145)-TurboID (S. cerevisiae) (UniProt P25443).
T2 sequence: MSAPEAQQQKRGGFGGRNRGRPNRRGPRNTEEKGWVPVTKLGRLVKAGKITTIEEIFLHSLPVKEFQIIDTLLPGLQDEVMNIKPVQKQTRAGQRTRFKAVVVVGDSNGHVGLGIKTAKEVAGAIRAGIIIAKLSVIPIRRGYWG

Experiment [3] deals with T3, full-length Rps2.R95R97K99>A-TurboID (S. cerevisiae) (UniProt P25443).
T3 sequence: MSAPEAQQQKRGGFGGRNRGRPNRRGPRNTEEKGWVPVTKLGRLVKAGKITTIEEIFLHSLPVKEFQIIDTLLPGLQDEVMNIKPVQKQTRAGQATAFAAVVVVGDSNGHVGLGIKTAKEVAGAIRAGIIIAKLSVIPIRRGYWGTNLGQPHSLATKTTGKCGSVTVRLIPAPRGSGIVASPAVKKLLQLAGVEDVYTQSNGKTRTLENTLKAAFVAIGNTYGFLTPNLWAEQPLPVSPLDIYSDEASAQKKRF

In experiment [4] the target is T4, full-length Rps2-TurboID (S. cerevisiae) (UniProt P25443).
T4 sequence: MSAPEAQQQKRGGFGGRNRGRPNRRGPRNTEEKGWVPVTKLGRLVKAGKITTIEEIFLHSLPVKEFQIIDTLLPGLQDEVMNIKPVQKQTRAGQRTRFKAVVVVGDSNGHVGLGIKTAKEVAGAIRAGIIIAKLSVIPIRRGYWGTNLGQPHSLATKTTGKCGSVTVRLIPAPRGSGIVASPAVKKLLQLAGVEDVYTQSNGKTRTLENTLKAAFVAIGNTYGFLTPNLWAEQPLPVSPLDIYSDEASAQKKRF

The target of experiment [5] is T5, full-length Rps2-TurboID (S. cerevisiae), P25443.
T5 chain: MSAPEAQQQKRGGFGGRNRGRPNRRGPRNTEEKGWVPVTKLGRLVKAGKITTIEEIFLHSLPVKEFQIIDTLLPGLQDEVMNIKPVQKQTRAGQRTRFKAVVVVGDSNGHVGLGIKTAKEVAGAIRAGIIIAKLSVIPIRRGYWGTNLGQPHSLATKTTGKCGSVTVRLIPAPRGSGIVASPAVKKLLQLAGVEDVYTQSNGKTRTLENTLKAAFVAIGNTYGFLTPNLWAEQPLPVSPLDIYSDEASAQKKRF
To be noted: remark: other sources report otherwise.

These are yes or no findings as the source states them, for the method shown. In cells and extracts the contact can be indirect. A yes stands for co-enrichment or nearness to the bait. Other partners may have been found. For part of these data: No binding means not detected with the bait.

B1: Tsr4 (protein, UniProt P25040 1-408)
chain: MSKIEELPPSDTDDHSYSSKPGDVFLAFVDAPVKETDDILVEDSFIGGEPKWLHPDSEPPAELLKCGACKSADNMKLLLQAFSPLDDEQMSAIQQRLGINNMSYINPQDDRVLYVFLCTECQRKGNSVRCIRGVKKNKNVDSLSEKMASTSLEKDFQINPFDLSNNSDSKCNAFSSNPFGGANANPFGADSINSNISQSKDEGKKKESATVSAKTARKLHDLQKDKEYDGNKCFKSCLLYVEEETFKNKKPAHLQLPKNLKIDKEALDLTGDEDLEKDPIKLDPRTEKLSKFLDDDTFQKFQEVVGYNPLQVLRYDLGGKPLLYAETKVDILSTVPRPGYNPSSQRIFEMQLMPKMIFDLEEVVSVDNGMEWGTILVFTDVENYMPEFDEHGVGYVEECVKVQWESRT
As to B1, the binding entry in experiment [1], in experiment [2], in experiment [3] and in experiment [4] was “binds” throughout.

B2: Pse1, P32337 1-1089 (protein)
chain: MSALPEEVNRTLLQIVQAFASPDNQIRSVAEKALSEEWITENNIEYLLTFLAEQAAFSQDTTVAALSAVLFRKLALKAPPSSKLMIMSKNITHIRKEVLAQIRSSLLKGFLSERADSIRHKLSDAIAECVQDDLPAWPELLQALIESLKSGNPNFRESSFRILTTVPYLITAVDINSILPIFQSGFTDASDNVKIAAVTAFVGYFKQLPKSEWSKLGILLPSLLNSLPRFLDDGKDDALASVFESLIELVELAPKLFKDMFDQIIQFTDMVIKNKDLEPPARTTALELLTVFSENAPQMCKSNQNYGQTLVMVTLIMMTEVSIDDDDAAEWIESDDTDDEEEVTYDHARQALDRVALKLGGEYLAAPLFQYLQQMITSTEWRERFAAMMALSSAAEGCADVLIGEIPKILDMVIPLINDPHPRVQYGCCNVLGQISTDFSPFIQRTAHDRILPALISKLTSECTSRVQTHAAAALVNFSEFASKDILEPYLDSLLTNLLVLLQSNKLYVQEQALTTIAFIAEAAKNKFIKYYDTLMPLLLNVLKVNNKDNSVLKGKCMECATLIGFAVGKEKFHEHSQELISILVALQNSDIDEDDALRSYLEQSWSRICRILGDDFVPLLPIVIPPLLITAKATQDVGLIEEEEAANFQQYPDWDVVQVQGKHIAIHTSVLDDKVSAMELLQSYATLLRGQFAVYVKEVMEEIALPSLDFYLHDGVRAAGATLIPILLSCLLAATGTQNEELVLLWHKASSKLIGGLMSEPMPEITQVYHNSLVNGIKVMGDNCLSEDQLAAFTKGVSANLTDTYERMQDRHGDGDEYNENIDEEEDFTDEDLLDEINKSIAAVLKTTNGHYLKNLENIWPMINTFLLDNEPILVIFALVVIGDLIQYGGEQTASMKNAFIPKVTECLISPDARIRQAASYIIGVCAQYAPSTYADVCIPTLDTLVQIVDFPGSKLEENRSSTENASAAIAKILYAYNSNIPNVDTYTANWFKTLPTITDKEAASFNYQFLSQLIENNSPIVCAQSNISAVVDSVIQALNERSLTEREGQTVISSVKKLLGFLPSSDAMAIFNRYPADIMEKVHKWFA
B2: the binding entry in experiment [5] is listed as “no binding”.

B3: Pse1 (protein, UniProt P32337 1-1089)
chain: MSALPEEVNRTLLQIVQAFASPDNQIRSVAEKALSEEWITENNIEYLLTFLAEQAAFSQDTTVAALSAVLFRKLALKAPPSSKLMIMSKNITHIRKEVLAQIRSSLLKGFLSERADSIRHKLSDAIAECVQDDLPAWPELLQALIESLKSGNPNFRESSFRILTTVPYLITAVDINSILPIFQSGFTDASDNVKIAAVTAFVGYFKQLPKSEWSKLGILLPSLLNSLPRFLDDGKDDALASVFESLIELVELAPKLFKDMFDQIIQFTDMVIKNKDLEPPARTTALELLTVFSENAPQMCKSNQNYGQTLVMVTLIMMTEVSIDDDDAAEWIESDDTDDEEEVTYDHARQALDRVALKLGGEYLAAPLFQYLQQMITSTEWRERFAAMMALSSAAEGCADVLIGEIPKILDMVIPLINDPHPRVQYGCCNVLGQISTDFSPFIQRTAHDRILPALISKLTSECTSRVQTHAAAALVNFSEFASKDILEPYLDSLLTNLLVLLQSNKLYVQEQALTTIAFIAEAAKNKFIKYYDTLMPLLLNVLKVNNKDNSVLKGKCMECATLIGFAVGKEKFHEHSQELISILVALQNSDIDEDDALRSYLEQSWSRICRILGDDFVPLLPIVIPPLLITAKATQDVGLIEEEEAANFQQYPDWDVVQVQGKHIAIHTSVLDDKVSAMELLQSYATLLRGQFAVYVKEVMEEIALPSLDFYLHDGVRAAGATLIPILLSCLLAATGTQNEELVLLWHKASSKLIGGLMSEPMPEITQVYHNSLVNGIKVMGDNCLSEDQLAAFTKGVSANLTDTYERMQDRHGDGDEYNENIDEEEDFTDEDLLDEINKSIAAVLKTTNGHYLKNLENIWPMINTFLLDNEPILVIFALVVIGDLIQYGGEQTASMKNAFIPKVTECLISPDARIRQAASYIIGVCAQYAPSTYADVCIPTLDTLVQIVDFPGSKLEENRSSTENASAAIAKILYAYNSNIPNVDTYTANWFKTLPTITDKEAASFNYQFLSQLIENNSPIVCAQSNISAVVDSVIQALNERSLTEREGQTVISSVKKLLGFLPSSDAMAIFNRYPADIMEKVHKWFA
For B3, the binding result in experiment [3] is recorded as “no binding”.
